1 substance from paper PMC6513894 can be followed below.

By UniProt entry, the sequences of proteins in these tests, tags left out.
UniProt Q921G8: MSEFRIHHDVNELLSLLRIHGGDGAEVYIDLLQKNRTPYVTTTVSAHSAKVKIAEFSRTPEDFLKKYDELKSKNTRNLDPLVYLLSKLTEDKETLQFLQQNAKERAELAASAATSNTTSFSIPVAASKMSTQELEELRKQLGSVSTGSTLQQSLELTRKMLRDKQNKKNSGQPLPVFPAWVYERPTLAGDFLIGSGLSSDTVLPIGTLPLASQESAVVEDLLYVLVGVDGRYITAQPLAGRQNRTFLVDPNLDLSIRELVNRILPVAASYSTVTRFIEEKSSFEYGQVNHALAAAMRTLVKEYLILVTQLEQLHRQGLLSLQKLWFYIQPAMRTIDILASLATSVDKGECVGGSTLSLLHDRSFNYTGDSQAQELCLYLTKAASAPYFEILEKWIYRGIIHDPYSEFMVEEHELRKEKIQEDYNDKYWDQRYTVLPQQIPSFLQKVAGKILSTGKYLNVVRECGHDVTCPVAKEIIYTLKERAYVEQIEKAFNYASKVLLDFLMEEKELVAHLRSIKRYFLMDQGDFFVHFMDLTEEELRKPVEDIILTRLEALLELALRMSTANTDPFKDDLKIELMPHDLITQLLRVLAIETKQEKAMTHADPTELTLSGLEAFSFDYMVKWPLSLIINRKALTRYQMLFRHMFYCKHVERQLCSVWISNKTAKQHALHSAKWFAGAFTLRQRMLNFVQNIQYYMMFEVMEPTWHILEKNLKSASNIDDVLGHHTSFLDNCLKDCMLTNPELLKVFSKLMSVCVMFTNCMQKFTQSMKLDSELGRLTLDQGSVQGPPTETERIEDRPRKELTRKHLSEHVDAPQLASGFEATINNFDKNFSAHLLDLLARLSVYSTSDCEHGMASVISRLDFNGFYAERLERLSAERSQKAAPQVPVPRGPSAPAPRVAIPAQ
UniProt Q9D4F8: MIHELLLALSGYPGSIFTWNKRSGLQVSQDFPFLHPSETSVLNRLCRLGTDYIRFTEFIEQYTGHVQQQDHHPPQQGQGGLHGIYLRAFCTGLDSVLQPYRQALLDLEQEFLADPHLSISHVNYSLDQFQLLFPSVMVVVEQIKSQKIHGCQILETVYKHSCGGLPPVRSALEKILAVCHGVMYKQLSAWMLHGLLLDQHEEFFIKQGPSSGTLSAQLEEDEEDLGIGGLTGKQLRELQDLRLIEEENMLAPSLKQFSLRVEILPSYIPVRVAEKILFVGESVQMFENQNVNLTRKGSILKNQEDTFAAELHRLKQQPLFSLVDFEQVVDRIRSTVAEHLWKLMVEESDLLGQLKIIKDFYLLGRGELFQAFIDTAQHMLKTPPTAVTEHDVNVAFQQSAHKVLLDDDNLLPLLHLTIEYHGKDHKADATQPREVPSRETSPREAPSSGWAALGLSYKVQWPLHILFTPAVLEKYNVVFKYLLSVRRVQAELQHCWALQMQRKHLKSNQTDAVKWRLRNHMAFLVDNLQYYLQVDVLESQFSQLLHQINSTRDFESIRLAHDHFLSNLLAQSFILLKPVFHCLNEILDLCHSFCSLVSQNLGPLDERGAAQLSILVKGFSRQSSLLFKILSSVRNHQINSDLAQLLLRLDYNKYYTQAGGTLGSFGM

The target in this test is GCP2 (mouse (endogenous in Neuro2a)) (UniProt Q921G8). Briefly: co-IP; Neuro2A extracts (HEPES buffer pH 7.6, 75 mM NaCl, 1% Nonidet P-40; diluted with TBST to 0.6 mg/ml) incubated with Protein A beads saturated with monoclonal antibody GCP2-01 to GCP2; reciprocal immunoprecipitation.

These are yes or no findings as the source states them, for the method shown. Binding seen in cells or lysates may run through a third protein. Some binding calls cover weakened binding; strength is not graded here.

As for GCP4 (from UniProt Q9D4F8 1-667), the binding result is “binds”.
